Drawing on publication PMC10291574, this text covers binding for one substance.

Sequences of proteins named here, by UniProt entry; tags and fusion partners are left off.
UniProt Q8CI15: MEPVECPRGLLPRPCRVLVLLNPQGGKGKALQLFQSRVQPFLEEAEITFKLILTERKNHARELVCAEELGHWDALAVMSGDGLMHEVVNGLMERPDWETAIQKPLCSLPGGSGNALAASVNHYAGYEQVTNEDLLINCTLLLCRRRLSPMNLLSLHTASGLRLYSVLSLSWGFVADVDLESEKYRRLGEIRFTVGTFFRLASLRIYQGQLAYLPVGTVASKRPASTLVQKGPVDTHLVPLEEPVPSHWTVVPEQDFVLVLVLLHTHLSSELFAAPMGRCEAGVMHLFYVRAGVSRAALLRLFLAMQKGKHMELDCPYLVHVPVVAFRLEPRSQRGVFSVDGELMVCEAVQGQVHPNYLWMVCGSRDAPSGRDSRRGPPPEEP

No constants are given. Whether binding was seen depends on the method and setting. In cells and extracts the contact can be indirect. Some results given as binding are weak or reduced against the parent protein; the word gives no strength.

For the experiment, the target named is T1, aminoacylase 1 (ACY1) (mouse (endogenous in mouse spinal cord)) (UniProt Q99JW2).
T1 sequence: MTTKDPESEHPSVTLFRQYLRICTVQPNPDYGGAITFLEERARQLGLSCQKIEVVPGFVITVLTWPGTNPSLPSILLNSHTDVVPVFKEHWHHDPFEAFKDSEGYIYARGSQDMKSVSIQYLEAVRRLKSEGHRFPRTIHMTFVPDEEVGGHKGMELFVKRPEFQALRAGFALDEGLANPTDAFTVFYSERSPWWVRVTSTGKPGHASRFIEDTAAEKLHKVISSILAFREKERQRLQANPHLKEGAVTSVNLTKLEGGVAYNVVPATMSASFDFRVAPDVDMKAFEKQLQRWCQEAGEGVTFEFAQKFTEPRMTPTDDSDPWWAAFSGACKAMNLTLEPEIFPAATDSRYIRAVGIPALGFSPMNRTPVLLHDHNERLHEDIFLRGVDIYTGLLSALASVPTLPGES
Nature of the experiment: co-IP; mouse spinal cord proteins (RIPA lysis buffer) incubated with ACY1 antibody (AF2700) and protein A/G; after washing SDS-PAGE and blot with SphK1 antibody (sc-365401).

For “sphingosine kinase 1 (SphK1) (from UniProt Q8CI15 1-382) (enzyme)”, the binding result is given as “binds”.
